Reference: patent publication US8828451B2, “Akt sensitization of cancer cells” (University of South Florida, priority 2006, dated 2014)
At least one compound was matched to its structure with a doubt left.

What was measured:
[1] = system: PARP; experiment: Western blot for PARP in leukemia cells; assay type: cell-based; conditions: leukemia cells (MV4-11, HL-60), 24 hr, higher doses
[2] = system: Akt phosphorylation; experiment: Western blot of OVCAR-3 lysates for phosphorylated Akt, S6, p70-S6K; assay type: cell-based, human
[3] = system: OVCAR-3 human ovarian cancer cells; experiment: Cell number growth over six days, OVCAR-3 cells; assay type: cell-based; conditions: OVCAR-3, 1 nM rapamycin, 5 μM API-2 or combination
[4] = system: DU-145 human prostate cancer; experiment: Cell number growth over six days, DU-145 cells; assay type: cell-based; conditions: DU-145, 1 nM rapamycin, 5 μM API-2 or combination

Row | Structure (SMILES) | PARP activation (Western blot) [1] | Akt phosphorylation ([2]; OVCAR-3) | phosphorylated S6 ([2]; OVCAR-3, indicated time points) | cell growth (cell numbers) [3] | cell growth (cell numbers) [4]
1 | Cn1cncc1[C@@](N)(c1ccc(Cl)cc1)c1ccc2c(c1)c(-c1cccc(Cl)c1)cc(=O)n2C [Tipifarnib] | activated |  |  |  | 
2 | CO[C@H]1C[C@@H]2CC[C@@H](C)[C@@](O)(O2)C(=O)C(=O)N2CCCC[C@H]2C(=O)O[C@H]([C@H](C)C[C@@H]2CC[C@@H](O)[C@H](OC)C2)CC(=O)[C@H](C)/C=C(\C)[C@@H](O)[C@@H](OC)C(=O)[C@H](C)C[C@H](C)/C=C/C=C/C=C/1C [rapamycin] |  | increased with longer exposure time | decreased with exposure | inhibited cell growth | inhibited cell growth
